Results as given in publication doi:10.1101/2024.02.14.580290.
No constants are given. Whether binding was seen depends on the method and setting. In cells and extracts the contact can be indirect. A yes stands for co-enrichment or nearness to the bait. Other partners may have been found.

Protein sequences, listed by entry. Tags and fused reporters are not part of them. Lines headed by an entry give the natural chain unless they say otherwise; changes in a name come on top.
UniProt Q5W0Z9: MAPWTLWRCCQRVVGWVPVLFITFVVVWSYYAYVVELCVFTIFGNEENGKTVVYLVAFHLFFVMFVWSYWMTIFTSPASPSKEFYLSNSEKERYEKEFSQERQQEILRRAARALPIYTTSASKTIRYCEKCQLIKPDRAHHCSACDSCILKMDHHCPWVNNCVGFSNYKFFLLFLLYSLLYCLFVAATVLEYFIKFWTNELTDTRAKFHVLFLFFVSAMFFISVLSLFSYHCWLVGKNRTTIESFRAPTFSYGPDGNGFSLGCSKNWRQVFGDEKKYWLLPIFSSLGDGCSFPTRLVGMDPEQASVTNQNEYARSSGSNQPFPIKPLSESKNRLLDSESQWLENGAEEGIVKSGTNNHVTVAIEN
UniProt Q9BTU6: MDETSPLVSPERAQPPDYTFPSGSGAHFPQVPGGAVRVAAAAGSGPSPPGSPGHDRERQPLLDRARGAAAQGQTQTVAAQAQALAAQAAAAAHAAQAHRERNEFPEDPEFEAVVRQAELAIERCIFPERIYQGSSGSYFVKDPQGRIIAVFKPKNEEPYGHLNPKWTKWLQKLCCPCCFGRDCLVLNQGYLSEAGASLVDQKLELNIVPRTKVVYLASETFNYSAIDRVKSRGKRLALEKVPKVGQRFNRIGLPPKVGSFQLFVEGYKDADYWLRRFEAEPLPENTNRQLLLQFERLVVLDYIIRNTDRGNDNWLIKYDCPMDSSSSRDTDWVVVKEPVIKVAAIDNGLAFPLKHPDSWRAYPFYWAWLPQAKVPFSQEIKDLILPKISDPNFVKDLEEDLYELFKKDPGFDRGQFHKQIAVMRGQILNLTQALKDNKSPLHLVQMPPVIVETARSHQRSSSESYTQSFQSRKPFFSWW

Target: DHHC20 (DHHC20-linker-TEV-TwinStrep) (UniProt Q5W0Z9)
Test: affinity purification with mass spectrometry

binding: binds
Substance: Phosphatidylinositol 4-kinase type 2-alpha (PI4K2A) (from UniProt Q9BTU6 1-479) (enzyme)
